According to publication PMC6208767:
These are yes or no findings as the source states them, for the method shown. Binding seen in cells or lysates may run through a third protein. A yes stands for co-enrichment or nearness to the bait. Other partners may have been found. No binding means not detected with the bait.

Chains of the proteins cited; added tags and fusions are not shown. Lines headed by an entry give the natural chain unless they say otherwise; changes in a name come on top.
UniProt I7M6H4: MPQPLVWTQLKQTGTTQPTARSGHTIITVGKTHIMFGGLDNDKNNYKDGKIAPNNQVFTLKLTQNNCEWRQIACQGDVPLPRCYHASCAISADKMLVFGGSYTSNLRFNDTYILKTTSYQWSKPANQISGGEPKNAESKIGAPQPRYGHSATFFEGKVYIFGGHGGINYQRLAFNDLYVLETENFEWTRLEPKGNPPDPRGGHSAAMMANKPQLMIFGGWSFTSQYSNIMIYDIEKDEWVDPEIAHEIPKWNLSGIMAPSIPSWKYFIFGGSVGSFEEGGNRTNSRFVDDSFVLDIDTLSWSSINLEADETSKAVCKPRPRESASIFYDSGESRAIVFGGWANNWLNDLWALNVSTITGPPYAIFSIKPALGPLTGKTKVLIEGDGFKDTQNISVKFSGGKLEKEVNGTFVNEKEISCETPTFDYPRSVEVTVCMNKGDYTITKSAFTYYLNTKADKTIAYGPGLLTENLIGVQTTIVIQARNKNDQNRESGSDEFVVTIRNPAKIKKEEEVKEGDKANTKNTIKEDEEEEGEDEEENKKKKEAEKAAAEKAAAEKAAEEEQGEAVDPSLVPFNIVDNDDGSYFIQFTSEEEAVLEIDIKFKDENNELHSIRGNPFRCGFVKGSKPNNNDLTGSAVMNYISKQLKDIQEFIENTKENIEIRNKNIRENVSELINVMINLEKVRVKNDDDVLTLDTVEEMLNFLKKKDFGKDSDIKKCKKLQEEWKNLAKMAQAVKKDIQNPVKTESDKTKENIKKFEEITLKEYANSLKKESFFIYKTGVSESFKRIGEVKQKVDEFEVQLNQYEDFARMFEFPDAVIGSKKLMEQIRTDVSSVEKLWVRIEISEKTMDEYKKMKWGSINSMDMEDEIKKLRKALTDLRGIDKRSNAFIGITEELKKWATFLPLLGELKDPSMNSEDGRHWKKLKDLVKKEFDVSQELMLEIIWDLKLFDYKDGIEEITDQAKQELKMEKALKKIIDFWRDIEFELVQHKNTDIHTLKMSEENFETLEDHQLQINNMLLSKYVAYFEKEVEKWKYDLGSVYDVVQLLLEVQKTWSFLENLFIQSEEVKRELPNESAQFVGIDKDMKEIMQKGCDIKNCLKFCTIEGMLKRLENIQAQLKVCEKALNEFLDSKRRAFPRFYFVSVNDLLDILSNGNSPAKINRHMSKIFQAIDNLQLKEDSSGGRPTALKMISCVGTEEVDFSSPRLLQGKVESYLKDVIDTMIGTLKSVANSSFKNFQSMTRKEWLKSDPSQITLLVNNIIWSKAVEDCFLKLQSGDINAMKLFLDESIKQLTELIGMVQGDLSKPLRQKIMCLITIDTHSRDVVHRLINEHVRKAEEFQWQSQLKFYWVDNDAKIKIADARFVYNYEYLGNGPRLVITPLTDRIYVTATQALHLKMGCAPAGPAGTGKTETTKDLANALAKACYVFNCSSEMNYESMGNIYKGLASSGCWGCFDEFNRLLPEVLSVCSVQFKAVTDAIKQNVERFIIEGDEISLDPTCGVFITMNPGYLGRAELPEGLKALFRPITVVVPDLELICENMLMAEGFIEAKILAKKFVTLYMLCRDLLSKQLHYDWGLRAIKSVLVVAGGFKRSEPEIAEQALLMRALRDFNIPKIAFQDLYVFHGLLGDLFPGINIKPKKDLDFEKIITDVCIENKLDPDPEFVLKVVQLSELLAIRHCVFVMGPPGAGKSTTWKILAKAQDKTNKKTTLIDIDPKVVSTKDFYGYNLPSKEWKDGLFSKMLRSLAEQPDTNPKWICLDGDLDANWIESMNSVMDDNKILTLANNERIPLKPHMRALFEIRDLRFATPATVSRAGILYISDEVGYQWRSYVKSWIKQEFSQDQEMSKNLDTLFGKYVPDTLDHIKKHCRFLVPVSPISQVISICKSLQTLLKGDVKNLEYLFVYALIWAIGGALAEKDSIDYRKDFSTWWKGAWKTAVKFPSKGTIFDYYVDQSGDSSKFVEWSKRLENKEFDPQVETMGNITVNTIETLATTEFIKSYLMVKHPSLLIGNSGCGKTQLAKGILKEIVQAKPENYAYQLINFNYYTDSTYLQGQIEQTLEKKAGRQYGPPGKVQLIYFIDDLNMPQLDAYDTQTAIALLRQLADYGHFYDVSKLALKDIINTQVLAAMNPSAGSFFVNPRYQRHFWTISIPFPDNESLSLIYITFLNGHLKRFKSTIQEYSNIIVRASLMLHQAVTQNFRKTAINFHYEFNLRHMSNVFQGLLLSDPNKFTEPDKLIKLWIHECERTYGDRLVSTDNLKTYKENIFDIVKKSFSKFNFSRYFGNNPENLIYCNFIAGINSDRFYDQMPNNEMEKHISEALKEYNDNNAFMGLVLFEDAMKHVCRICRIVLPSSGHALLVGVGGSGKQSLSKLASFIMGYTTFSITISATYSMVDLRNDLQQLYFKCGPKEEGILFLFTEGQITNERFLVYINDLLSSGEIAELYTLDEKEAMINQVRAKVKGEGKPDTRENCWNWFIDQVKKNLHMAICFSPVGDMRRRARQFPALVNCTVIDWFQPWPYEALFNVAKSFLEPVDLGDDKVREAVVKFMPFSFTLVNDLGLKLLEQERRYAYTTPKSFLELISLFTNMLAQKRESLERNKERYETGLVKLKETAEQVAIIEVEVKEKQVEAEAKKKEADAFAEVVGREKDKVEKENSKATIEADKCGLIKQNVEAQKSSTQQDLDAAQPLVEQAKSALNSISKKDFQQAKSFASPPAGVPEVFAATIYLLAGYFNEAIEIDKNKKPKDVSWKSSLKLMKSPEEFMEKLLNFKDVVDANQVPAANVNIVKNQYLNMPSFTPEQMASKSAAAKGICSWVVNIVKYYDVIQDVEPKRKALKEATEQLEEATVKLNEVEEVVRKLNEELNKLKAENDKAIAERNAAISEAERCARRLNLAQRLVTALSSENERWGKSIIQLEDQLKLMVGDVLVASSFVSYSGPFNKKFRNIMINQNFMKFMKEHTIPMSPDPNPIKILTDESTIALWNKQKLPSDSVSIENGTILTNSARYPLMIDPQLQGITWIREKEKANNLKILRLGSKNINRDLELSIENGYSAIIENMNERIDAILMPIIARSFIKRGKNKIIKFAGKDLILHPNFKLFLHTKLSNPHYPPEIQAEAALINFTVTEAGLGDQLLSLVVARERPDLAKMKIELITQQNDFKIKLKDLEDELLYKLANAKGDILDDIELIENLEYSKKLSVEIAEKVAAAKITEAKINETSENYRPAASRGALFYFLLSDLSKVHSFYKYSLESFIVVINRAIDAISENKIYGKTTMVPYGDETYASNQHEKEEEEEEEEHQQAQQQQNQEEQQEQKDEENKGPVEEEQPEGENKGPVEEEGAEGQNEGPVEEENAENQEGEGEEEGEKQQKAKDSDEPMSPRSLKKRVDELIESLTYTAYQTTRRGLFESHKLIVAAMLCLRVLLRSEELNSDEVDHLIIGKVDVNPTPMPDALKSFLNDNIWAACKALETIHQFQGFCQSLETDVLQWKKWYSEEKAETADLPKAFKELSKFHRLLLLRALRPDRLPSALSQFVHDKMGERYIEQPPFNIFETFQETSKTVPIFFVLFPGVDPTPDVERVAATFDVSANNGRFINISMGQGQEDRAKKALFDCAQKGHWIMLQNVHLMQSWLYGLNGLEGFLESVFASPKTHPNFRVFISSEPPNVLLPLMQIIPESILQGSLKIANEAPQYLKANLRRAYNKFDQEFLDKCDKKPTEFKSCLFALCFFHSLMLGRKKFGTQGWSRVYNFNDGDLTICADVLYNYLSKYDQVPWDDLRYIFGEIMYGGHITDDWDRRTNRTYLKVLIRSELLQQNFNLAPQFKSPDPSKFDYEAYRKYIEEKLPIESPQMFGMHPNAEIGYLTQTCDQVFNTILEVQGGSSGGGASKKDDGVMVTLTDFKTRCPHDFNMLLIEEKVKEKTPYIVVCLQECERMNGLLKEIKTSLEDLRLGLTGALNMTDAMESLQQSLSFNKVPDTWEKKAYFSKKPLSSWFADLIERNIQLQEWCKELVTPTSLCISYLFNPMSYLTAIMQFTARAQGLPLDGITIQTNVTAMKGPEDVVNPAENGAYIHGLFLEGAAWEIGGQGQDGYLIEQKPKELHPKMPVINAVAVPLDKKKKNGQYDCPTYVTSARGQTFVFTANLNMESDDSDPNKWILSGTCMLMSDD
UniProt I7LY62: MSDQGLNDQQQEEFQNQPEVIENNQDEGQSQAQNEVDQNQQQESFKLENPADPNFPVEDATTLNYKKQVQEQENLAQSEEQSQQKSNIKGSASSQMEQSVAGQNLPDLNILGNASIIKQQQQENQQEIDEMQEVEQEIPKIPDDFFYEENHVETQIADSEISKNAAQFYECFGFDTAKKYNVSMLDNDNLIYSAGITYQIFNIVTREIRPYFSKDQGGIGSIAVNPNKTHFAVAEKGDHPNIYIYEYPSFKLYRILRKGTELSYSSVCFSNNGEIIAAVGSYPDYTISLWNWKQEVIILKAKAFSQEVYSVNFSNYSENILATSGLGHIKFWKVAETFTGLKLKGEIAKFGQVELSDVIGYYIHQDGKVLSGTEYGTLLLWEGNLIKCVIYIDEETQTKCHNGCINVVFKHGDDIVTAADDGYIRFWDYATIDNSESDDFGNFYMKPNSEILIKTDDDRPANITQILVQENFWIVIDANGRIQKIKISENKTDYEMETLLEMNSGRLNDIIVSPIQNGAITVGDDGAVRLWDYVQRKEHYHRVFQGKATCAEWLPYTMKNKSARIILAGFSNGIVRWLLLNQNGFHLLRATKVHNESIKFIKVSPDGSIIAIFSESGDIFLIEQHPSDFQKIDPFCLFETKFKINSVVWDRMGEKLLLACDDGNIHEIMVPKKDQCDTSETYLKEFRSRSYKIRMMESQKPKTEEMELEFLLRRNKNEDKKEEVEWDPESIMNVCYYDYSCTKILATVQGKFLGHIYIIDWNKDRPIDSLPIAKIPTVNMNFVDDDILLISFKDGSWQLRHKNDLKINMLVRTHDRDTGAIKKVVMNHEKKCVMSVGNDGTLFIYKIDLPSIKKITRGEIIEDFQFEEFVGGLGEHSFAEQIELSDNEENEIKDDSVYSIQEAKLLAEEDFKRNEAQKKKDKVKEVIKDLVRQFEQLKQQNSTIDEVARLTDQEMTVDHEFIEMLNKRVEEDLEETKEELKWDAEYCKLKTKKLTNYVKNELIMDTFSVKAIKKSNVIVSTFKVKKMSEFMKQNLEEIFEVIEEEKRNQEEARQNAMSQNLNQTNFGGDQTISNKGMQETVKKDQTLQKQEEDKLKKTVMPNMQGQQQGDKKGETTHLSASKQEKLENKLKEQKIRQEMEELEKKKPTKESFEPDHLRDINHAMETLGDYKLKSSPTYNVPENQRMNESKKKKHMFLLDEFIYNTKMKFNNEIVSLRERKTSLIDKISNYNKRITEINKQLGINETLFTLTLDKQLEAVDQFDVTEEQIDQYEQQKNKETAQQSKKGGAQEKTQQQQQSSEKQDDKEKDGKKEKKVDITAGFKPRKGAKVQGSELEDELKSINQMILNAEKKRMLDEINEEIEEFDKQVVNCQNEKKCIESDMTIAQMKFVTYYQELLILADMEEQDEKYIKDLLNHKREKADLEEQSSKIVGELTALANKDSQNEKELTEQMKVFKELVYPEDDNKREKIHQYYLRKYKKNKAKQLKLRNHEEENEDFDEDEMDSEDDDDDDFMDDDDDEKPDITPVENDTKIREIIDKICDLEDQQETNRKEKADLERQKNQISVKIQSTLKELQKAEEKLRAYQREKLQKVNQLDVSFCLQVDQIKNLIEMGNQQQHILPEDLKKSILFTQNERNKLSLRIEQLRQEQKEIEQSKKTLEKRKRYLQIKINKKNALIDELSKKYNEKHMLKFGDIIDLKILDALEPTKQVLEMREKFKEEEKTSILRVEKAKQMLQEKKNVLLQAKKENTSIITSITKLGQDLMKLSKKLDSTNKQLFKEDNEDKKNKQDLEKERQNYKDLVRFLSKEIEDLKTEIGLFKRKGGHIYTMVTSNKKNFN

These substances were tested against GFP–Fap43p (overexpressed, N-terminally GFP-tagged full-length Fap43p) (Tetrahymena thermophila) (UniProt Q23K15) (assay: affinity purification with mass spectrometry; GFP–Fap43p immunoprecipitated with anti-GFP antibodies (GFP-Trap resin) from the cytoskeletal fraction of cells overexpressing GFP–Fap43p; cells overexpressing GFP alone as control).

Substance | binding
Dyh3p, dynein heavy chain of the outer dynein arm (from UniProt Q22A67 1-4620) | no binding
Dyh4p, dynein heavy chain of the outer dynein arm (from UniProt I7M9J2 1-4595) | no binding
Dyh5, dynein heavy chain of the outer dynein arm (from UniProt I7M6H4 1-4168) | no binding
Fap44p (ortholog of Chlamydomonas Fap44p) (from UniProt I7LY62) | binds
